# Test results published in patent US20230210939A1 (priority 2020, published 2023).
# Assay: general procedure: Fmoc solid-phase peptide synthesis; Fmoc-Rink amide MBHA resin, 0.328 mmol/g; HBTU/HOBt/DIPEA
# Details: for step yield: purification step; for final HPLC purity: UV 214 nm; for final HPLC purity / isolated yield: scale of the general procedure 3.1 g resin; for isolated yield: total yield
# [1] = whole synthesis, trifluoroacetate
substance,measurement,setting,value
picolinyl-Ala-Ser-cyclo[Cys-LRKL-Aib-KRLL-Cys]-NH2,step yield,acetate,60.9%
same,step yield,trifluoroacetate,28.8%
same,final HPLC purity,"whole synthesis, acetate",97.88%
same,final HPLC purity,[1],98.5%
same,isolated yield,"whole synthesis, acetate",11.7%
same,isolated yield,[1],19.2%
same,isolated mass,[1],575.0 mg
